These are yes or no findings as the source states them, for the method shown.

In this test the target is CbtA (Ea), CbtA toxin from Erwinia amylovora strain CTBT3-1 (Erwinia amylovora strain CTBT3-1). Briefly: two-hybrid; GAL4 DNA binding domain bait and activation domain prey fusions co-transformed into S. cerevisiae strain Y2H gold; growth on SD/-Leu/-Trp and SD/-Leu/-Trp/-His plates, 30 °C, 3 days.

B1: MreB (Ea), cytoskeletal protein MreB from Erwinia amylovora strain CTBT3-1 (protein, UniProt A0ABX7MI44 1-347)
chain: MFKKFRGMFSNDLSIDLGTANTLIYVKGQGIVLNEPSVVAIRQDRAGSPKSVAAVGHDAKQMLGRTPGNIAAIRPMKDGVIADFFVTEKMLQHFIKQVHSNSFMRPSPRVLVCVPVGATQVERRAIRESAQGAGAREVFLIEEPMAAAIGAGLPVSEATGSMVVDIGGGTTEVAVISLNGVVYSSSVRIGGDRFDEAIINYVRRNYGSLIGEATAERIKHGIGSAYPGDEVREIEVRGRNLAEGVPRGFTLNSNEILEALQEPLTGIVSAVMVALEQCPPELASDISERGMVLTGGGALLRNLDRLLMEETGIPVVVAEDPLTCVARGGGKALEMIDMHGGDLFSEE
Take B1: the binding entry is reported as “no binding”.

The values are drawn from article PMC6521040.
